Measurements: PMC12604490, “Dual immunomodulatory and antileishmanial potential of TLR7/8 agonists against Leishmania donovani” (Infection and Immunity, 2025)

Key:
[1] = system: RAW 264.7 macrophages; test: Cytotoxicity on RAW 264.7 macrophages (MTT, 48 h); assay type: cell-based; conditions: for RAW macrophage SI (antiamastigote): CC50 RAW 264.7 / IC50 amastigotes; for RAW macrophage SI (antipromastigote): CC50 RAW 264.7 / IC50 promastigotes
Protocol: To evaluate the cytotoxicity and antiamastigote assay, RAW 264.7 macrophages were cultured in Dulbecco’s modified Eagle medium (HiMedia, India), 10% heat-inactivated fetal bovine serum (FBS, Biowest) and cultured at 37°C (5% CO2). The macrophage cell growth was evaluated daily, and the cells were subcultured into a new flask containing fresh cell culture medium once they reached about 80%–90% confluency.
(§1) The cytotoxicity studies were performed using an immune cell line (RAW 264.7 macrophage) and non-immune epithelial cell line (HeLa) by 3-(4,5-dimethylthiazol-2-yl)-2,5-diphenyltetrazolium bromide (MTT) assay. A total of 7,000–10,000 cells/well were supplemented with different concentrations (2–64 μg/mL) of TLR7/8 agonists and incubated for 48 hours. MTT (1 mg/mL) (Hi-Media) was added to each well and kept for 4 hours. The formazan crystals formed were dissolved in 100 µL of dimethyl ulfoxide (DMSO), and absorbance at 550 nm was recorded using a microreader. AmB, MF, and Resiquimod were used as reference drugs. The percentage of cytotoxicity was calculated as [(absorbance of treated well − absorbance of blank) / (absorbance of untreated well − absorbance of blank)] × 100. The CC50 value was calculated with SPSS software. The SI of TLR7/8 agonists was obtained by calculating the ratio of CC50 (RAW 264.7 macrophage and HeLa cells) and IC50 (antipromastigote and antiamastigotes) ([21], [23]).

[2] = system: HeLa cells; test: Cytotoxicity on HeLa cells (MTT, 48 h); assay type: cell-based, human; conditions: for HeLa cell SI (antiamastigote): CC50 HeLa / IC50 amastigotes; for HeLa cell SI (antipromastigote): CC50 HeLa / IC50 promastigotes
Protocol: HeLa cells (human cervical epithelial cell line) were grown in RPMI-1640 (HiMedia) with 10% FBS and cultured at 37°C (5% CO2). The cells were evaluated daily using an inverted microscope for any contamination and subcultured after reaching confluency ([21]).
as §1

Structure (SMILES) | RAW macrophage SI (antiamastigote) [1] | RAW macrophage SI (antipromastigote) [1] | HeLa cell SI (antiamastigote) [2] | HeLa cell SI (antipromastigote) [2]
CCCCc1nc2c(N)nc3ccccc3c2n1CC(C)C [compound 1] | 1.76 | 2.8 | 1.36 | 2.21
CCCCc1nc2c(N)nc3ccccc3c2n1Cc1ccc(Cl)cc1 [compound 2] | 1.02 | 1.61 | 0.68 | 1.08
CCCCNC(=O)c1ccc(Cn2c(CCCC)nc3c(N)nc4ccccc4c32)cc1 [compound 3] | 1.38 | 1.87 | 0.94 | 1.28
CCCCc1nc2c(N)nc3ccccc3c2n1Cc1ccc(O)c(O)c1 [compound 5] | 10.45 | 15.08 | 9.87 | 14.25
CCCCc1nc2c(N)nc3ccccc3c2n1Cc1ccc(C(N)=O)cc1 [compound 6] | 0.94 | 1.31 | 0.64 | 0.89
CCCCc1nc2c(N)nc3ccccc3c2n1Cc1ccc(CNC(=O)OC(C)(C)C)cc1 [compound 7] | 1.21 | 1.64 | 0.86 | 1.12
CCCCc1nc2c(N)nc3ccccc3c2n1Cc1cccc(CNC(=O)OC(C)(C)C)c1 [compound 8] | 3.12 | 4.38 | 2.83 | 2.02
CCCCn1cc2c(n1)c(N)nc1ccccc12 [compound 11] | 1.01 | 1.44 | 0.7 | 1
